Drawing on PubChem BioAssay AID488835 (Broad Institute, 2010), this text covers activity change, negative = inhibition for 82 compounds.

The chains behind the UniProt entries cited, without tags or fusion partners. Residues count along the entry.
UniProt Q9H3R0, 1-420 limits assumed: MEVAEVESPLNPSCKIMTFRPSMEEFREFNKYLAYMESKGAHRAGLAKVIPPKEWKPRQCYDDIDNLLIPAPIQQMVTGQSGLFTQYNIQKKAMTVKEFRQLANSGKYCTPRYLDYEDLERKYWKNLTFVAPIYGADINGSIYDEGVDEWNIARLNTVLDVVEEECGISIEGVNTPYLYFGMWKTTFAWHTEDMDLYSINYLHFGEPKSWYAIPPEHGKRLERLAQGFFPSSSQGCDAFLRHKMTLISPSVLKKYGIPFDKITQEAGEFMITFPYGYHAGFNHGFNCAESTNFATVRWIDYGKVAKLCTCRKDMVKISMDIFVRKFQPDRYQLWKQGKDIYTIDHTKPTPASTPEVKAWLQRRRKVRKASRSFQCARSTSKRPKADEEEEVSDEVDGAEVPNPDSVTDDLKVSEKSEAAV

The campaign covered roughly 1,400 compounds. About 140 (10%) were called active.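 Rule for the calls: active = Half-maximal inhibitory dose from the fit at or below ten times the top valid tested dose; inconclusive = Invalid fit, or flat curve showing 30 to 70% inhibition; inactive = the rest.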 The entries are a selection whose mix differs from that of the whole data set. Measured potencies and affinities stand elsewhere.

The target of the test is Lysine-specific demethylase 4C (Homo sapiens) (UniProt Q9H3R0). The experiment in a line: inhibition of JMJD2C H3K9me3 demethylation – biochemical, DELFIA europium, cherry-picked samples, dose response (AID 488835).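 Note: signal is the H3K9me2 demethylation product detected by a dimethyl-specific antibody.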 The following applies: GST-JMJD2C(1-420); at 6 µM (top of the series) unless noted.
Consider `COC(=O)[C@]1(C)N[C@H](CN(C)C(=O)Nc2ccc(C)cc2)[C@@H]2C(=O)N(Cc3ccccc3)C(=O)[C@@H]21`, for which the activity change, negative = inhibition is inactive: 3.23%.

`Cc1ccc(NC(=O)c2ccc(OC(=O)CCN3C(=O)c4ccccc4C3=O)cc2)cc1`: the activity change, negative = inhibition is inactive: -0.588%.

For the compound `Cn1c(SCC(=O)Nc2cc(S(=O)(=O)N3CCOCC3)ccc2N2CCOCC2)nnc1-c1ccncc1`, the activity change, negative = inhibition was inactive: -0.937%.

For `Cc1cc(N(C)C)cc(C)[n+]1[O-]`, the activity change, negative = inhibition was inactive: 9.45%.

Turning to `CCOC(=O)N1CCc2c(sc3nc4n(c(=O)c23)N=C(C)CS4)C1`, the activity change, negative = inhibition was inactive: -0.154%.

Regarding `C#CCOCCOCCOCCNc1nc(N2CCN(C(=O)[C@H](CCCCN)n3cc([C@@H](N)[C@H](C)CC)nn3)CC2)nc(N2CCN(C(=O)[C@H](CCC(=O)O)n3cc([C@@H](N)CCSC)nn3)CC2)n1`, the activity change, negative = inhibition was inactive: 3.89%.

On to `C[C@@H]1CN([C@H](C)CO)C(=O)c2cccc(NC(=O)c3ccncc3)c2O[C@@H]1CN(C)Cc1ccc(C(=O)O)cc1`, for which the activity change, negative = inhibition was inactive: -5.5%.

For `CC(=O)Nc1n[nH]c(-c2ccc(C)cc2)c1C`, the activity change, negative = inhibition is inactive: 6.4%.

Take `CC(=O)N1CCN(c2ccc(NC(=O)c3ccc4ccccc4c3)cc2)CC1`: the activity change, negative = inhibition was inactive: 3.73%.

In the case of `CCS(=O)(=O)N1CCCC(C(=O)NCCCN2CCCC2=O)C1` (configuration not stated), the activity change, negative = inhibition was inactive: 6.63%.

With `C=CCn1c(N2CCCCCC2)nc2c1c(=O)[nH]c(=O)n2C`, the activity change, negative = inhibition is inactive: -2.76%.

In the case of `Cc1occc1-c1nnc(SCC(=O)Nc2ccccc2)n1C(C)c1ccccc1` (configuration not stated), the activity change, negative = inhibition is inactive: 4.21% [at 1.6 µM].

Take `C[C@@]12C(=O)Nc3ccc(Br)cc3C(=O)N1[C@H]1c3ccccc3OC[C@@H]1[C@@H]2c1ccccc1`: the activity change, negative = inhibition was inactive: 0.725%.

Consider `Cc1cc(C)n2nc(C(=O)N3CCCC(Nc4ccc(F)c(F)c4)C3)cc2n1` (configuration not stated), for which the activity change, negative = inhibition was inactive: 3.27%.

As for `CC(C)(C)c1ccc(C(=O)NNC(=O)c2cccc(Br)c2)cc1`, the activity change, negative = inhibition is inactive: 3.94%.

With `COC(=O)NNC(=S)Nc1cc(OC)ccc1OC`, the activity change, negative = inhibition was inactive: 4.86%.

Regarding `CCC(CC)NC(=O)CSc1nnc(-c2ccc(OC)cc2)n1C(C)C`, the activity change, negative = inhibition is inactive: 3.58%.

In the case of `O=c1n(Cc2ccccc2)c2cc(Cl)cnc2n1Cc1ccccc1`, the activity change, negative = inhibition was inactive: -12.2%.

With `C[C@@]12C(=O)Nc3cc(F)c(F)cc3C(=O)N1[C@H]1c3cc(Cl)ccc3OC[C@@H]1[C@@H]2c1ccccc1`, the activity change, negative = inhibition is inactive: 3.39%.

Regarding `C[C@H](CO)N1C[C@H](C)[C@@H](CN(C)Cc2ccncc2)Oc2c(NC(=O)Cc3ccccc3)cccc2C1=O`, the activity change, negative = inhibition is inactive: -3.32%.

Take `CC#CCOC(=O)c1c(C)nc2sc3c(c2c1N)CCC(O)C3` (configuration not stated): the activity change, negative = inhibition is inactive: 8.15%.

On to `CC[C@@]1(C(=O)OC)N[C@H](CN(C)C(=O)Nc2ccc(C)cc2)[C@@H]2C(=O)N(C)C(=O)[C@@H]21`, for which the activity change, negative = inhibition is inactive: -3.45%.

For `Cn1c(=O)c2c(nc(NC3CCCCC3)n2Cc2ccccc2)n(C)c1=O`, the activity change, negative = inhibition was inactive: 1.97%.

For the compound `C=CCOc1ccc(C(=O)NC2CCCCC2)cc1`, the activity change, negative = inhibition was inactive: 0.127%.

On to `O=C(c1cccc(-n2cccc2)c1)N1CCN(S(=O)(=O)c2c(F)cccc2F)CC1`, for which the activity change, negative = inhibition was inactive: -0.611%.

For the compound `CCOC(=O)C1CCN(S(=O)(=O)c2cccc(-c3cn4cc(Cl)ccc4n3)c2)CC1`, the activity change, negative = inhibition is inactive: 4.89%.

For `C[C@@H]1CC[C@]2(C(=O)O[C@@H]3O[C@H](CO)[C@@H](O)[C@H](O)[C@H]3O)CC[C@]3(C)C(=CCC4[C@@]5(C)C[C@@H](O)[C@H](O)[C@@](C)(C(=O)O[C@@H]6[C@H](O)C[C@@]7(C)C(CC[C@]8(C)C7CC=C7[C@H]9[C@](C(=O)O[C@@H]%10O[C@H](CO)[C@@H](O)[C@H](O)[C@H]%10O)(CC[C@@H](C)[C@@]9(C)O)CC[C@]78C)[C@@]6(CO)C(=O)O)C5CC[C@]43C)[C@@H]2[C@]1(C)O` (some centres not stated), the activity change, negative = inhibition is inactive: 8%.

As for `Cc1ccc(C(=O)NCCCCNC(=O)c2ccc(C)o2)o1`, the activity change, negative = inhibition is inactive: 3.59%.

In the case of `Cc1cccc2c1-c1sc(C(=O)Nc3cccc([N+](=O)[O-])c3C)cc1CO2`, the activity change, negative = inhibition was inactive: 13.5%.

Take `Cn1c2ccccc2c2c(C(=O)N3CCN(c4ccccn4)CC3)cn(C3CCCC3)c(=O)c21`: the activity change, negative = inhibition is inactive: 4.51%.

Regarding `Cn1cccc1-c1nc2ccc(NC(=O)c3cccs3)cc2[nH]1`, the activity change, negative = inhibition was inactive: -5.68%.

On to `CN(C(=O)c1ccccn1)c1nnc(-c2ccccn2)s1`, for which the activity change, negative = inhibition is inactive: 4.97%.

For the compound `COC(=O)CNS(=O)(=O)c1ccc(C)cc1`, the activity change, negative = inhibition was inactive: 2.24%.

Regarding `O=C(/C=C/c1cc([N+](=O)[O-])ccc1OC(F)F)Nc1ccc(OC(F)F)cc1`, the activity change, negative = inhibition is inactive: 3.39%.

As for `COC(=O)C1=C(C(=O)OC)SC(=C2C(=S)C(C)(C)N(C(=O)C(C)C)c3ccccc32)S1`, the activity change, negative = inhibition is inactive: 5.45%.

Turning to `CCOc1ccc(-c2nc(CSCC(=O)NC3CCCc4ccccc43)c(C)o2)cc1` (configuration not stated), the activity change, negative = inhibition is inactive: -1.1%.

Take `S=c1[nH]nc(COc2ccccc2)n1/N=C/c1ccccn1`: the activity change, negative = inhibition is inactive: -9.09%.

As for `COCCCn1c(SCC(=O)NCc2ccco2)nc2sc3c(c2c1=O)CCC3`, the activity change, negative = inhibition is inactive: -1.17%.

Turning to `CN(c1cccc(Cl)c1)S(=O)(=O)c1cccc(C(=O)Nc2ccc3c(c2)CCC3)c1`, the activity change, negative = inhibition is inactive: 0.113%.

Take `C#CCOCCOCCOCCNc1nc(N2CCN(C(=O)[C@H](CCC(=O)O)n3cc([C@@H](N)CCCCN)nn3)CC2)nc(N2CCN(C(=O)[C@H](CCC(=O)O)n3cc([C@@H](N)CCCCN)nn3)CC2)n1`: the activity change, negative = inhibition is inactive: -1.73%.

As to `O=c1ccc(=O)n2n1CC(O)C2`, the activity change, negative = inhibition was inactive: 4.28%.

Turning to `Cc1cccc(NC(=O)C2CCN(S(=O)(=O)c3cccc4nsnc34)CC2)n1`, the activity change, negative = inhibition was inactive: 1.5%.

Take `Cc1cccc(NS(=O)(=O)c2cccc3nsnc23)c1`: the activity change, negative = inhibition is inactive: 1.48%.

For `COc1ccc(/C(C)=N/Nc2nccnc2Cl)cc1`, the activity change, negative = inhibition was inactive: -1.3%.

For the compound `Cc1cc(=O)[nH]c(CN2CCOCC2)n1`, the activity change, negative = inhibition is inactive: 8.68%.

For the compound `COc1ccc(OC)c(/C=C2\SC(=S)N(Cc3cccnc3)C2=O)c1`, the activity change, negative = inhibition is inactive: -4.57%.

With `CN(C(=O)COc1ccccc1)c1nnc(-c2ccncc2)s1`, the activity change, negative = inhibition is inactive: 9.89%.

Turning to `C[C@H](CO)N1C[C@H](C)[C@@H](CN(C)S(=O)(=O)c2ccccc2)Oc2c(NC(=O)CCC(F)(F)F)cccc2C1=O`, the activity change, negative = inhibition is inactive: -2.36%.

Consider `Cn1c(=O)n(C)c2cc(S(=O)(=O)N3CCOCC3)ccc21`, for which the activity change, negative = inhibition was inactive: 13.3%.

Turning to `Cc1cnn(C(=O)c2ccccc2Br)c1`, the activity change, negative = inhibition is inactive: 5.52%.

As for `CCOC(=O)Cc1csc(NC(=O)COc2cccc(C)c2)n1`, the activity change, negative = inhibition was inactive: 6.84%.

Consider `COc1ccc(CCN2C(=O)CC(NNC(=O)c3ccccc3Br)C2=O)cc1` (configuration not stated), for which the activity change, negative = inhibition is inactive: 7.12%.

With `CNC[C@H]1Oc2c(NS(=O)(=O)c3cccs3)cccc2C(=O)N([C@H](C)CO)C[C@@H]1C`, the activity change, negative = inhibition is inactive: -0.911%.

With `CC(OC(=O)c1ccc([N+](=O)[O-])s1)C(=O)Nc1ncc(Cl)cc1Cl` (configuration not stated), the activity change, negative = inhibition was inactive: -0.534%.

As to `Cc1ccccc1CN1C(=O)C(O)(CC(=O)c2ccncc2)c2ccccc21` (configuration not stated), the activity change, negative = inhibition was inactive: 9.16%.

Take `CS(=O)(=O)NC1c2cccc3cccc(c23)C1Sc1nncn1/N=C/c1ccco1` (configuration not stated): the activity change, negative = inhibition was inactive: 4.42%.

With `COc1cccc(C(c2nnnn2CCc2ccccc2)N2CCN(c3ccccc3)CC2)c1OC` (configuration not stated), the activity change, negative = inhibition was inactive: 6.18%.

`CC1CCN(C(=O)CSc2nnc(CNC(=O)c3c(F)cccc3F)o2)CC1`: the activity change, negative = inhibition is inactive: 6.12%.

As for `CCn1c(=O)c(C(=O)CN2c3ccccc3CC2C)c(N)n(Cc2ccccc2)c1=O` (configuration not stated), the activity change, negative = inhibition was inactive: -1.24%.

In the case of `Cn1c2ccccc2c(=O)c2ccc(NCCc3cccs3)cc21`, the activity change, negative = inhibition is inactive: -2.85%.

Regarding `CC(=O)Nc1ccc2c(c1)C(C)(C)C(C)N2C` (configuration not stated), the activity change, negative = inhibition is inactive: 2.1%.

For the compound `Cc1ccc(CNC(=O)Cc2ccc(-c3ccccc3)cc2)cc1`, the activity change, negative = inhibition is inactive: -0.123%.

For the compound `Fc1ccccc1OCCCCn1cncn1`, the activity change, negative = inhibition is inactive: 9.01%.

Turning to `N#CC(C(=O)NCCc1ccccc1)c1nc2ccccc2nc1N1CCOCC1` (configuration not stated), the activity change, negative = inhibition was inactive: 2.32%.

As for `CCOC(=O)c1sc(Nc2nc(OC)cc(OC)n2)nc1C`, the activity change, negative = inhibition was inactive: 1.39%.

For `CCOc1ccccc1Nc1ncnc2ccccc12`, the activity change, negative = inhibition was inactive: 6.06%.

In the case of `CCOc1ccc2nc(NC(=O)CS(=O)(=O)c3ccc(C)cc3)sc2c1`, the activity change, negative = inhibition is inactive: 4.69%.

In the case of `COc1cc(Cl)c(NC2=CC(=O)C(=O)c3ccccc32)c(OC)c1`, the activity change, negative = inhibition was inactive: -0.945%.

Consider `Nc1c(C(=O)OCC2CCCO2)c2nc3ccccc3nc2n1C1CCCC1` (configuration not stated), for which the activity change, negative = inhibition is inactive: -6.76%.

As for `CCOC(=O)c1cc2n(n1)C(C(F)(F)F)CC(C)N2` (configuration not stated), the activity change, negative = inhibition was inactive: -3.7%.

On to `COC(=O)CCC(=O)N1CCOCCOCCN(C(=O)CCC(=O)OC)CCOCCOCC1`, for which the activity change, negative = inhibition is inactive: 5.88%.

Take `O=C(NCc1nnc(SCC(=O)N2CCCC2)o1)c1c(F)cccc1Cl`: the activity change, negative = inhibition is inactive: 7.98%.

For `O=C(Cn1c(NCCCO)nc2ccccc21)c1ccc(Br)cc1`, the activity change, negative = inhibition was inactive: 3.75%.

In the case of `CCN(C[C@H]1N[C@@](C)(C(=O)OC)[C@H]2C(=O)N(C)C(=O)[C@@H]12)C(=O)Nc1ccccc1`, the activity change, negative = inhibition was inactive: 6.53%.

In the case of `CCc1ncc(C)[nH]1`, the activity change, negative = inhibition is inactive: -5.59%.

For the compound `COC(=O)c1ccc(-c2sc3nc(N4CCOCC4)c4c(c3c2N)CC(C)(C)OC4)o1`, the activity change, negative = inhibition is inactive: 5.56% [at 1.6 µM].

`COc1ccccc1CCNC(=O)c1ccc(C)o1`: the activity change, negative = inhibition is inactive: 8.21%.

For the compound `Cc1ccc(CNC(=O)[C@@H](NC(=O)Cc2ccccc2)C(C)C)cc1`, the activity change, negative = inhibition was inactive: 0.0758%.

Regarding `Cn1nc(N)nc1N1CCN(c2ccc(F)cc2)CC1`, the activity change, negative = inhibition was inactive: 0.933%.

Consider `Cc1noc(C)c1NC(=O)N(C)C[C@H]1Oc2ccc(NS(=O)(=O)c3ccccc3)cc2C(=O)N([C@H](C)CO)C[C@@H]1C`, for which the activity change, negative = inhibition is inactive: 3.26%.

For the compound `Cc1ccc(Nc2nnc(SCC(=O)N(C)C3CCS(=O)(=O)C3)s2)cc1` (configuration not stated), the activity change, negative = inhibition was inactive: 2.6%.

For the compound `CC(C)C[C@@H]1CN=C(N)N1C[C@@H]1CCCN1C[C@H](C)N1C[C@@H](Cc2ccccc2)N(CCc2ccc(Cl)c(Cl)c2)C1=N`, the activity change, negative = inhibition was inactive: 8.72%.
